# Assay results published in the supplement of paper PMC8090911.
# Counter-ions that a name gives are not always drawn. This is one part of the list. Most values come without repeats; read them as rough.
# Tested on: p95-ErbB2-MCF7
# Assay: perinuclear lysosome accumulation (PNLA, size of LAMP2 puncta), robust Z-score vs plate median; higher = more perinuclear lysosome accumulation (reversal of invasive lysosome distribution)
# Conditions: 5 µM; 24 h
row,Compound,perinuclear lysosome accumulation
1,N[C@@H](Cc1ccc(O)c(O)c1)C(=O)O [Levodopa],0.816
2,CN1CCN2c3ccccc3Cc3ccccc3C2C1 (stereo not given) [Mianserine hydrochloride],0.113
3,CC(C)NNC(=O)c1ccncc1 [Iproniazide phosphate],0.344
4,CCN(CC)CCNC(=O)c1cc(Br)c(N)cc1OC [Bromopride],1.02
5,OC(CCN1CCCCC1)(c1ccccc1)c1ccccc1 [Pridinol methanesulfonate salt],-0.0216
6,OCCN1CCN(CC/C=C2/c3ccccc3Sc3ccc(Cl)cc32)CC1 [Zuclopenthixol hydrochloride],1.73
7,Nc1ccc(/N=N/c2ccccc2)c(N)n1 [Phenazopyridine hydrochloride],1.04
8,CN(C)CCOC(=O)C(c1ccccc1)C1(O)CCCC1 (stereo not given) [Cyclopentolate hydrochloride],0.961
9,CC1=CC(=O)C2=C(C)CC[C@@H]3[C@H](OC(=O)[C@H]3C)[C@@H]12 [Leucomisine],-0.17
10,CCC(=O)O[C@]1(C(=O)SCF)[C@H](C)C[C@H]2[C@@H]3C[C@H](F)C4=CC(=O)C=C[C@]4(C)[C@@]3(F)[C@@H](O)C[C@@]21C [Fluticasone propionate],-0.359
11,CC[N+](C)(CC)CCC[n+]1c(-c2ccccc2)c2cc(N)ccc2c2ccc(N)cc21 [Propidium iodide],1.06
12,O=C(O)c1ccccc1Nc1cccc(C(F)(F)F)c1 [Flufenamic acid],-0.146
13,Clc1ccc(C(c2ccccc2Cl)C(Cl)Cl)cc1 (stereo not given) [Mitotane],-0.488
14,O=C1O[C@H]([C@@H](O)CO)C(O)=C1O [Ascorbic acid],1.52
15,Nc1ccc(C(=O)O)c(O)c1 [4-aminosalicylic acid],-1.04
16,O=C1Nc2ccc(Cl)cc2[C@@](C#CC2CC2)(C(F)(F)F)O1 [Efavirenz],0.0698
17,CC(=O)Oc1ccc(C(c2ccc(OC(C)=O)cc2)c2ccccn2)cc1 [Bisacodyl],-0.379
18,CCCc1nn(C)c2c(=O)[nH]c(-c3cc(S(=O)(=O)N4CCN(C)CC4)ccc3OCC)nc12 [Sildenafil],0.624
19,CCCNC(C)(C)COC(=O)c1ccccc1 [Meprylcaine hydrochloride],0.366
20,CCC1(C)CC(=O)NC1=O (stereo not given) [Ethosuximide],0.216

# Three entries already listed, sorted by molar mass, ascending.
row,Compound,perinuclear lysosome accumulation
15,Nc1ccc(C(=O)O)c(O)c1 [4-aminosalicylic acid],-1.04
4,CCN(CC)CCNC(=O)c1cc(Br)c(N)cc1OC [Bromopride],1.02
6,OCCN1CCN(CC/C=C2/c3ccccc3Sc3ccc(Cl)cc32)CC1 [Zuclopenthixol hydrochloride],1.73

# Next structures.

row,Compound,perinuclear lysosome accumulation
1,CC(NCCc1ccc(O)cc1)C(O)c1ccc(O)cc1 (stereo not given) [Ritodrine hydrochloride],-0.0937
2,C[N+](C)(CCOc1ccccc1)Cc1ccccc1.O=C([O-])c1cc2ccccc2cc1O [Bephenium hydroxynaphthoate],1.04
3,CCc1nn(CCCN2CCN(c3cccc(Cl)c3)CC2)c(=O)n1CCOc1ccccc1 [Nefazodone HCl],1.83
4,Cc1c(OCC(F)(F)F)ccnc1C[S+]([O-])c1nc2ccccc2[nH]1 (stereo not given) [Lansoprazole],-0.64
5,Cn1c(=O)c2c(ncn2C)n(C)c1=O [Caffeine],0.638
6,COC(=O)Nc1nc2cc(C(=O)c3ccc(F)cc3)ccc2[nH]1 [Flubendazol],-1.99
7,COC1=CC(=O)C[C@@H](C)[C@]12Oc1c(Cl)c(OC)cc(OC)c1C2=O [Griseofulvin],1.85
8,COc1cc(N)c(Cl)cc1C(=O)NC1CCN(CCCOc2ccc(F)cc2)CC1OC (stereo not given) [Cisapride],0.265
9,CN(C)CCC(c1ccc(Cl)cc1)c1ccccn1 (stereo not given) [Chlorpheniramine maleate],-0.589
10,CCCC(CCC)C(=O)O [Valproic acid],-0.35
11,CN(C)CCCC1(c2ccc(F)cc2)OCc2cc(C#N)ccc21 (stereo not given) [Citalopram Hydrobromide],0.645
12,O=C(O)CNC(=O)C(CS)Cc1ccccc1 (stereo not given) [Thiorphan],-1.55
13,CC(CN1c2ccccc2Sc2ccccc21)N(C)C (stereo not given) [Promethazine hydrochloride],0.912
14,NS(=O)(=O)c1cc2c(cc1C(F)(F)F)NC(Cc1ccccc1)NS2(=O)=O (stereo not given) [Bendroflumethiazide],0.193
15,O=C(c1ccc(OCCN2CCCCC2)cc1)c1c(-c2ccc(O)cc2)sc2cc(O)ccc12 [Raloxifene hydrochloride],-1.61
16,CCn1cc(C(=O)O)c(=O)c2cc(F)c(N3CCNCC3)cc21 [Norfloxacin],0.751
17,CCOC(=O)C1=C(C)NC(C)=C(C(=O)OC)C1c1cccc([N+](=O)[O-])c1 (stereo not given) [Nitrendipine],-0.402
18,CC1CCc2cc(F)cc3c(=O)c(C(=O)O)cn1c23 (stereo not given) [Flumequine],0.094
19,CCCCOc1ccc(OCCCN2CCOCC2)cc1 [Pramoxine hydrochloride],1.27
20,COc1ccccc1OCCNCC(O)COc1cccc2[nH]c3ccccc3c12 (stereo not given) [Carvedilol],1.16
